No constants are given. Whether binding was seen depends on the method and setting. Some binding calls cover weakened binding; strength is not graded here.

Chains of the proteins cited; added tags and fusions are not shown. Residues count along the entry.
UniProt P04004, residues 20-478: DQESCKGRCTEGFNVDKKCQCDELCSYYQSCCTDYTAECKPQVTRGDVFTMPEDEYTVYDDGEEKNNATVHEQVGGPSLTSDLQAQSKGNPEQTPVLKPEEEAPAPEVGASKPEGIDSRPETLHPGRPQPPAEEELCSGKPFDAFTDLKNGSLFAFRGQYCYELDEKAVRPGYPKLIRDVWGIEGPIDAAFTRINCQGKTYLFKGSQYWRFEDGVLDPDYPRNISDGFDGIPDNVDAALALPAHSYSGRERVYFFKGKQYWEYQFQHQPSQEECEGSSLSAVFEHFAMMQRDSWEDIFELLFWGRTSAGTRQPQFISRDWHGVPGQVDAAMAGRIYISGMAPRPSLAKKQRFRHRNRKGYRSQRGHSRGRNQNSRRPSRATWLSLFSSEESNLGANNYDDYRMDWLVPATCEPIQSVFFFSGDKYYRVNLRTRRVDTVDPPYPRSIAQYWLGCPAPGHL
UniProt P17936, residues 28-291: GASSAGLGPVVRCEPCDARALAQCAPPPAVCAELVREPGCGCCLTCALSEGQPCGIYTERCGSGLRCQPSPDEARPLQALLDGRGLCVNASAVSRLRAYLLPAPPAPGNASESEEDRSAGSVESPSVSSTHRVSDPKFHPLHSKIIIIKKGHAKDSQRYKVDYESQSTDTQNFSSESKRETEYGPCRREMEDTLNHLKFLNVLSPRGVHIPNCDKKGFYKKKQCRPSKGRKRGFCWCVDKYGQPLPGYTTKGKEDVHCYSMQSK
UniProt P24593, residues 21-272: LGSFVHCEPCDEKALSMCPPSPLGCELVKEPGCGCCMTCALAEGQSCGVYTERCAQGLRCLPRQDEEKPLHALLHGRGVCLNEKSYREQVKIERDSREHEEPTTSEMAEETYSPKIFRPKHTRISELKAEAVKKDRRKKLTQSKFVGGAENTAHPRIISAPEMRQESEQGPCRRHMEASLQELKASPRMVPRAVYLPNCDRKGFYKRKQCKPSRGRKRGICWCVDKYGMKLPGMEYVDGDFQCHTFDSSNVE
UniProt P18065, residues 36-325: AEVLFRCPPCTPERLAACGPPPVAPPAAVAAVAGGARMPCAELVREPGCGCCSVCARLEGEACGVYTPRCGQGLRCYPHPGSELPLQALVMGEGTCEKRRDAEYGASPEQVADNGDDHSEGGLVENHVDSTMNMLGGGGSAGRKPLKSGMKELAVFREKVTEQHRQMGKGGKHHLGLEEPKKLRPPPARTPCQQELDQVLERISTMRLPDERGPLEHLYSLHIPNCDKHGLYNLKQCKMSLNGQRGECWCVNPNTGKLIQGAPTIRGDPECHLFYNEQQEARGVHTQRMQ

For assay [1], the target named is vitronectin (UniProt P04004). In words: radiolabelled IGF-I or IGF-II bound to VN-coated wells in the presence of non-glycosylated IGFBP-3 (E. coli); IGFBP-3:VN binding read through the labelled IGF.
Assay [2] concerns the target vitronectin (UniProt P04004). The assay is described as follows: [^125I]-IGF-II bound to VN-coated wells in the presence of IGFBP-5; IGFBP:VN binding read through labelled IGF-II.
For assay [3], the target named is vitronectin (UniProt P04004). The assay is described as follows: [^125I]-IGF-I bound to VN-coated wells in the presence of IGFBP.
The target of assay [4] is vitronectin (UniProt P04004). In words: [^125I]-IGF-I bound to VN-coated wells with glycosylated IGFBP-3; IGFBP:VN binding read through labelled IGF-I.

Regarding “non-glycosylated recombinant IGFBP-3 produced in E. coli (from UniProt P17936 28-291)”, the binding entry with vitronectin [1] was “binds”.

As for “recombinant IGFBP-5 produced in mammalian cells (from UniProt P24593 21-272)”, the binding entry in the assay with vitronectin [2] and in the assay with vitronectin [3] was “binds” each time.

Consider “recombinant IGFBP-2 produced in mammalian cells (from UniProt P18065 36-325)”, for which the binding result with vitronectin [3] is “binds”. As for “recombinant glycosylated IGFBP-3 produced in mammalian cells (from UniProt P17936 28-291)”, the binding entry with vitronectin [4] and in the assay with vitronectin [3] was “binds” throughout.

The record behind these values is patent US7785835.
